PubChem BioAssay AID504808 | Drosophila RNAi Screening Center | 2011

- Screen: 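Chromatin factors that keep E2F targets switched off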 (primary screen)
- Cell system: Drosophila S2 cells
- Knock-down reagent: long dsRNA against Drosophila genes
- Measurement: 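Dual luciferase plate measurements; E2F-specific signal taken as firefly over Renilla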
- Reading the numbers: E2F firefly: higher = more E2F reporter activity; Renilla normaliser: higher = more normaliser reporter signal
- Call rule: 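a knock-down counted as active when the firefly/Renilla E2F signal rose above 50%, a threshold chosen arbitrarily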
The deposit covers about 21,000 reagents; below is a random part of those that have a named target and a result. Of all reagents, 18 (0.084%) are marked active. 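Raw counts without plate normalisation, one of two replicates; the ratio scores behind the calls were not deposited.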 A plus sign joins genes that one reagent is predicted to hit. Not stated in the record: the amount of reagent, the time to read-out.

How did the screen score CG15025 [DRSC15031]?
E2F firefly, rep 1: 1.35e5; Renilla normaliser, rep 1: 6755; activity call: inactive

What is on record for stl [DRSC04396]?
E2F firefly, rep 1: 81802; Renilla normaliser, rep 1: 3442; activity call: inactive

For CG9970 [DRSC08644], what was measured?
E2F firefly, rep 1: 96138; Renilla normaliser, rep 1: 4011; activity call: inactive

Which result is listed for Sidpn [DRSC02056]?
E2F firefly, rep 1: 79483; Renilla normaliser, rep 1: 3455; activity call: inactive

For CG13170 [DRSC06298], how do the results read?
E2F firefly, rep 1: 89251; Renilla normaliser, rep 1: 4394; activity call: inactive

With CheB98a [DRSC14882], what was measured?
E2F firefly, rep 1: 1.12e5; Renilla normaliser, rep 1: 6090; activity call: inactive

What did the screen give for ppk19 [DRSC15321]?
E2F firefly, rep 1: 1.30e5; Renilla normaliser, rep 1: 7347; activity call: inactive

With b6 [DRSC18740], what was measured?
E2F firefly, rep 1: 1.32e5; Renilla normaliser, rep 1: 6547; activity call: inactive

What did the screen give for Dref [DRSC03319]?
E2F firefly, rep 1: 55797; Renilla normaliser, rep 1: 3513; activity call: inactive

For Lint-O [DRSC18468], how do the results read?
E2F firefly, rep 1: 1.53e5; Renilla normaliser, rep 1: 5702; activity call: inactive

With CG32301 [DRSC08613], what does the deposit list?
E2F firefly, rep 1: 90317; Renilla normaliser, rep 1: 3794; activity call: inactive

Which result is listed for CG13667 [DRSC10028]?
E2F firefly, rep 1: 76971; Renilla normaliser, rep 1: 3847; activity call: inactive

5 entries already listed, sorted by “Renilla normaliser, rep 1”, highest first:
b6 [DRSC18740] | E2F firefly, rep 1: 1.32e5; Renilla normaliser, rep 1: 6547; activity call: inactive
Lint-O [DRSC18468] | E2F firefly, rep 1: 1.53e5; Renilla normaliser, rep 1: 5702; activity call: inactive
CG13667 [DRSC10028] | E2F firefly, rep 1: 76971; Renilla normaliser, rep 1: 3847; activity call: inactive
CG32301 [DRSC08613] | E2F firefly, rep 1: 90317; Renilla normaliser, rep 1: 3794; activity call: inactive
Dref [DRSC03319] | E2F firefly, rep 1: 55797; Renilla normaliser, rep 1: 3513; activity call: inactive

Further results follow:
With CG1529 [DRSC20515], how do the results read?
E2F firefly, rep 1: 1.42e5; Renilla normaliser, rep 1: 6556; activity call: inactive

Which result is listed for CG4360 [DRSC15566]?
E2F firefly, rep 1: 1.21e5; Renilla normaliser, rep 1: 6880; activity call: inactive

What did the screen give for Not11 [DRSC04204]?
E2F firefly, rep 1: 1.32e5; Renilla normaliser, rep 1: 5316; activity call: inactive

For CG34178 + CG34177 [DRSC00351], what was measured?
E2F firefly, rep 1: 1.47e5; Renilla normaliser, rep 1: 4986; activity call: inactive

With CBP [DRSC17746], what does the deposit list?
E2F firefly, rep 1: 8042; Renilla normaliser, rep 1: 684; activity call: inactive

Which result is listed for CG34326 (retired record) [DRSC19165]?
E2F firefly, rep 1: 86137; Renilla normaliser, rep 1: 2374; activity call: inactive

With cv-2 [DRSC03861], what does the deposit list?
E2F firefly, rep 1: 1.21e5; Renilla normaliser, rep 1: 4698; activity call: inactive

What did the screen give for cv-2 [DRSC04261]?
E2F firefly, rep 1: 99503; Renilla normaliser, rep 1: 4268; activity call: inactive

For Ada1-1 + Ada1-2 [DRSC01220], how do the results read?
E2F firefly, rep 1: 1.13e5; Renilla normaliser, rep 1: 5790; activity call: inactive

For Ada1-1 + Ada1-2 [DRSC01222], what was measured?
E2F firefly, rep 1: 1.28e5; Renilla normaliser, rep 1: 6831; activity call: inactive

What is on record for CG8004 [DRSC10947]?
E2F firefly, rep 1: 80599; Renilla normaliser, rep 1: 3518; activity call: inactive

How did the screen score RpL19 [DRSC04649]?
E2F firefly, rep 1: 64064; Renilla normaliser, rep 1: 4420; activity call: inactive

What did the screen give for qkr58E-2 [DRSC04710]?
E2F firefly, rep 1: 92794; Renilla normaliser, rep 1: 4573; activity call: inactive

For CG13227 [DRSC06347], how do the results read?
E2F firefly, rep 1: 1.08e5; Renilla normaliser, rep 1: 4229; activity call: inactive

For CG14605 [DRSC12549], what was measured?
E2F firefly, rep 1: 1.31e5; Renilla normaliser, rep 1: 6508; activity call: inactive

For mura [DRSC16483], how do the results read?
E2F firefly, rep 1: 1.18e5; Renilla normaliser, rep 1: 6154; activity call: inactive

What is on record for mura [DRSC16484]?
E2F firefly, rep 1: 73215; Renilla normaliser, rep 1: 4719; activity call: inactive
